# Measurements as given in PubChem BioAssay AID2685 (National Center for Advancing Translational Sciences (NCATS), 2010).
# The other results are listed elsewhere or left out. These are further read-outs of the screen, such as a control signal, another cell line or another target. No call is given for them. The list favours compounds with an active or inconclusive main result. The note in brackets gives the kind of curve behind each potency; many fits are weak.
# Assay: qHTS Assay for Lipid Storage Modulators in Drosophila S3 Cells;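 as to cell number change: cells counted by Cell Tracker Red CMTPX staining in the red channel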
# Conditions: BODIPY lipid droplet fluorescence, 18-24 h; for cell number change: measured here: cell count max response, cells fed with added oleic acid
# Outline: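 Drosophila S3 cells loaded with oleic acid (400 uM, as added) and compounds at several concentrations; lipid droplets imaged by 488-nm laser-scanning cytometry, 500–530 nm intensity and object ratio to cell channel. Percent activity normalized to 20 uM Triacsin C.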
# [1] = measured here: lipid fluorescence (Fed channel) AC50, cells fed with added oleic acid
# [2] = measured here: cell number channel AC50, cells fed with added oleic acid
SMILES,cell number change,AC50 [1],AC50 [2]
O=C(C(=O)N1CCN(c2ccccc2Cl)CC1)c1c[nH]c2ccccc12,5.7%,,
COc1cc(/C=C(\C#N)C(=O)NCC2CCCO2)ccc1OCC(=O)O (stereo not given),-11.3%,"18.4 µM [falling, single point]",
COc1ccc(C(=O)COc2ccc3ccc(=O)oc3c2)cc1,,"0.164 µM [rising, full curve, poor fit]",
Cc1c(Cc2ccccc2)c(=O)oc2cc(OCC(=O)N3CCC(C(=O)O)CC3)ccc12,2.91%,,
Cc1csc(N(C)C(=O)CSc2nnc(COc3ccccc3C)o2)n1,150%,,
COc1ccc(NC(=O)c2cc(-c3ccco3)nc3ccccc23)cn1,-1.29%,"6.51 µM [falling, single point]",
COCCNC(=O)CN1CCN(Cc2cccc(Cl)c2)C1=O,-15.3%,"29.1 µM [falling, partial curve]",
O=C(COC(=O)CCC(=O)c1cccs1)NC1CC1,-6.42%,,
O=C(c1ccc(=O)oc1)N1CCN(C(c2ccccc2)c2ccccc2)CC1,0.204%,"0.00461 µM [falling, full curve]",
CS(=O)(=O)c1ccccc1-c1nnc(NC(=O)c2cccc(N3C(=O)CCC3=O)c2)o1,-34.1%,,"0.731 µM [falling, full curve]"
Cc1ccc(/C=C/C(=O)N2CCCC(C)C2)cc1 (stereo not given),-6.03%,"18.4 µM [rising, partial curve]",
CC1CCCN(C(=O)CN(C)S(=O)(=O)c2cccc3nsnc23)C1 (stereo not given),,,"6.51 µM [rising, single point]"
COc1ccc(OC(=O)c2cnn(-c3ccccc3)c2C)cc1,41.4%,,"29.1 µM [rising, single point]"
O=S1(=O)CCC(NC2CCCC2)C1 (stereo not given),47.7%,"6.51 µM [rising, single point]","8.2 µM [rising, partial curve, poor fit]"
Cc1ccc(NC(=O)COC(=O)C(NS(=O)(=O)c2ccc(Cl)cc2)C(C)O)c(Br)c1 (stereo not given),17.3%,"29.1 µM [rising, partial curve, poor fit]",
O=c1[nH]c2ccccc2n1CCCSc1cnc2ccccc2n1,,"6.51 µM [rising, partial curve]",
CC(=O)N1Cc2ccccc2C(C)CC12CCCCC2 (stereo not given),-8.03%,"20.6 µM [falling, single point]",
CS(=O)(=O)c1ccc(C(=O)N(CCc2ccccc2)Cc2ccccc2)cc1,3.81%,"32.6 µM [rising, single point]",
CC(=O)Nc1ccc(NC(=O)C2CC(=O)N(C(C)C)C2)cc1 (stereo not given),32.1%,"29.1 µM [rising, single point]","32.6 µM [rising, single point]"
C/C(=N\NC(=S)NCc1ccccc1)c1ccc(C)o1,-12.3%,,
CCN1C(=O)c2cccc3c(N)ccc1c23,,,"6.51 µM [rising, single point]"

SMILES,cell number change,AC50 [1],AC50 [2]
c1ccc2c(Nc3nc(-c4ccncc4)nc4ccccc34)cccc2c1,2.13%,,"0.0461 µM [rising, single point]"
O=C1CC(c2ccccc2)CC(O)=C1C=NCCN1CCNCC1 (stereo not given),-20.9%,"0.0461 µM [falling, full curve, poor fit]",
Cc1cccc(C(=O)NC2CCN(C(=O)Nc3ccc(F)cc3)CC2)c1,1.9%,,
OCc1nc2ccccc2n1Cc1c(F)cccc1Cl,-9.48%,"6.51 µM [falling, single point]",
CCc1c(C)nc(SCC(=O)c2cccs2)c(C#N)c1C,-0.806%,,"6.51 µM [rising, single point]"
Cc1cc(C)c(C)c(S(=O)(=O)Nc2ccc(C(=O)N3CCCC3)cc2)c1C,-1.49%,"6.51 µM [rising, single point]","0.13 µM [rising, full curve, poor fit]"
Cc1cc2c(cc1S(=O)(=O)Nc1cccc(F)c1)n(C)c(=O)c(=O)n2C,-3.17%,,
O=C(CCn1c(=S)[nH]c2ccccc2c1=O)NCCCN1CCOCC1,-16.8%,,
O=C(Nc1nc(-c2ccc(Cl)cc2)cs1)NC1CCCCC1,-16.2%,"29.1 µM [falling, single point]",
CCCC(=O)Nc1ccc(NC(=O)c2cccs2)cn1,173%,"0.58 µM [rising, single point]","18.4 µM [rising, partial curve]"
CC(=O)NCCn1c(SCC(=O)c2ccccc2)nc2ccccc2c1=O,15.6%,"1.64 µM [rising, full curve]",
CNC(=O)c1cc2ncc(C(F)(F)F)cc2s1,-36.9%,,"4.11 µM [falling, partial curve, poor fit]"
O=C(c1cc([N+](=O)[O-])ccc1N1CCCC1)N1CCCCC1,0.319%,"0.082 µM [falling, partial curve, poor fit]",
CC(=O)c1c(C)[nH]c(C(=O)CN2C(=O)NC(C)(c3ccc4c(c3)OCCO4)C2=O)c1C (stereo not given),20%,"11.6 µM [rising, partial curve, poor fit]",
O=C1COc2ccc(C(=O)COC(=O)c3ccccn3)cc2N1,-5.41%,"29.1 µM [falling, single point]",
O=S(=O)(Nc1ccc(N=Nc2ccccc2)cc1)c1ccccc1,-48%,"29.1 µM [falling, single point]","18.4 µM [falling, partial curve]"
COCCn1c(SCC(=O)NCc2ccccc2)nc2ccccc21,-6.67%,"0.103 µM [rising, full curve, poor fit]",
Cc1ccc2cc(C(c3nnnn3CC3CCCO3)N3CCc4ccccc4C3)c(=O)[nH]c2c1 (stereo not given),,,"0.58 µM [rising, full curve, poor fit]"
FC(F)(F)c1cnc(NNC(=S)Nc2ccc(Cl)cc2)c(Cl)c1,-65.5%,"4.61 µM [falling, full curve]","20.6 µM [falling, partial curve, poor fit]"
COc1ccc(C(OCC(O)CNCCc2ccccc2)c2ccc(OC)cc2)cc1 (stereo not given),-34.2%,"25.9 µM [falling, single point]","29.1 µM [falling, single point]"
CC/C(=N\NC(=O)CCC(=O)NCc1ccccc1)c1ccc(O)cc1,-0.12%,"0.103 µM [falling, full curve, poor fit]",

SMILES,cell number change,AC50 [1],AC50 [2]
O=C(CCN1CCOCC1)N1CCCC(Nc2cccc(F)c2)C1 (stereo not given),-11.6%,"0.82 µM [falling, full curve, poor fit]",
Cc1cc(C)c(N)cc1C,18.2%,"11.6 µM [rising, partial curve, poor fit]",
CCC(C)C(=O)Nc1ccc(OC)cc1[N+](=O)[O-] (stereo not given),2.29%,"0.164 µM [falling, full curve, poor fit]",
Nc1c(C(=O)CSc2nnc(-c3ccccc3F)o2)c(=O)[nH]c(=O)n1C1CC1,38.6%,"10.3 µM [rising, partial curve]","9.2 µM [rising, partial curve]"
O=C(C[n+]1cn(C(F)F)c2ccccc21)c1ccc(OC(F)F)cc1,84.9%,,"11.6 µM [rising, partial curve]"
COc1ccc(C[C@H]2CN3C(=NC[C@H]3Cc3ccccc3)N2CCNC(=O)CCC2CCCCC2)cc1,-26.6%,"29.1 µM [falling, single point]",
COc1ccc(OC)c(C2CC(=O)OC3=C2C(=O)CC(C)(C)C3)c1 (stereo not given),49.6%,,
Cc1cc(C)c(OCC(=O)OC(C)C(=O)N2CCc3ccccc32)c(C)c1 (stereo not given),-6.48%,"0.00461 µM [rising, full curve, poor fit]",
CCc1noc(C)c1C(=O)N1CCN(S(=O)(=O)c2cccs2)CC1,0.427%,,
COc1cccc(N2CCCn3c2nc2c3c(=O)n(CCN3CCOCC3)c(=O)n2C)c1,11.4%,,
CC(OC(=O)C1CSC2(C)CCC(=O)N12)C(=O)Nc1ccc(F)cc1 (stereo not given),-1.87%,"2.31 µM [falling, full curve]",
O=C(C[n+]1ccncc1)c1ccccc1,9.12%,,
CC(C)(C)c1ccc(S(=O)(=O)N2CCN(CCC#N)CC2)cc1,2.2%,"18.4 µM [falling, partial curve]",
CCOC(=O)c1c(C)nc2sc3c(=O)n(-c4ccc(C(C)=O)cc4)cnc3c2c1-c1ccc(OC)cc1,-5.8%,"23.1 µM [falling, partial curve]",
CCSc1nc(O)c(C(c2cccc(OC)c2)c2c(O)nc(SCC)[nH]c2=O)c(=O)[nH]1,30.3%,,"29.1 µM [rising, partial curve, poor fit]"
CCn1cc(S(=O)(=O)NCc2ccc3c(c2)OCO3)cn1,,"0.82 µM [falling, single point]",
O=C(COc1ccc(/C=N/NC(=O)c2ccccc2Br)cc1)Nc1ccccc1,,"16.4 µM [falling, partial curve]",
Cc1nnc2c(N3CCN(CCO)CC3)nc3ccccc3n12,-13.4%,"0.651 µM [falling, full curve, poor fit]",
COc1cccc(NC(=O)Cc2nnc(SCC(=O)NC3=NCCS3)n2C)c1,-3.95%,,
COc1ccc(S(=O)(=O)N2CCCC2)cc1NC(=O)c1ccccc1F,6.41%,,"7.31 µM [rising, single point]"
Cc1cc(N/N=C/c2ccc(Cl)cc2)nc(NCc2ccccc2)n1,-71.5%,"9.2 µM [falling, partial curve, poor fit]","16.4 µM [falling, partial curve, poor fit]"
